{"source": "PubChem BioAssay AID504444", "about": "(National Center for Advancing Translational Sciences (NCATS), 2011)", "note": "Values joined by “and” are separate entries in the source; they are usually repeats but may differ in a detail not shown here. Identical values can stand only once. The whole screen tested about 360,000 compounds, of which about 7,500 (2.1%) were called active. This list was built around the results that the source calls inconclusive (neither active nor inactive); the mix of calls is not that of the screen. The call rests on the fitted dose curve; in most records, active means well fitted inhibition curve with a large enough effect; inconclusive means small, poorly fitted or top-dose-only effect, or effect the other way; inactive means flat fitted curve, though single readings scatter. Potencies of inconclusive entries are doubtful fits and often do not repeat. Potency means the concentration at half of the fitted maximal effect."}
{"test": "Nrf2 qHTS screen for inhibitors; further: nearly all actives have a fitted effect of over 60% in size", "details": "A549 ARE-Fluc reporter, luciferase luminescence, 18-24 h; series mostly up to 46 µM", "how_it_was_run": "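A549 ARE_Fluc cells (5000/well, 5% FBS OPTI-MEM) pre-incubated 2 h, then treated with compounds 18-24 h at 37C/5% CO2 in concentration-response. CellTiter-Fluor viability read first; BugLite luciferase luminescence after 15 min at room temperature gives Nrf2 activity.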"}
{"compound": "Nc1cccn2c(-c3ccc(Cl)cc3)cnc12", "Potency": "inconclusive: 23.1 µM [activator, partial curve]"}
{"compound": "N#Cc1nc(-c2cccs2)oc1NCc1ccco1", "Potency": "inconclusive: 29.1 µM [falling, single point]"}
{"compound": "CCn1cc(C2C(C(=O)Nc3cc(C)ccn3)=C(C)NC3=C2C(=O)CC(C)(C)C3)c(C)n1", "note": "(centres undefined)", "Potency": "inactive"}
{"compound": "O=C1NN(c2cccc(Br)c2)C(=O)/C1=C\\c1ccccc1", "Potency": "inconclusive: 3.26 µM [activator, single point]"}
{"compound": "CC1Cc2ccccc2N1C(=O)CSc1nccc(=O)[nH]1", "note": "(centres undefined)", "Potency": "inactive"}
{"compound": "N/C(=N\\NS(=O)(=O)c1ccccc1Cl)c1ccccn1", "Potency": "inconclusive: 32.6 µM [falling, single point]"}
{"compound": "O=C(c1ccc(F)cc1)N1CCC(C(=O)N2CCN(S(=O)(=O)c3ccccc3Br)CC2)CC1", "Potency": "inconclusive: 25.9 µM [falling, partial curve]"}
{"compound": "COc1cc2c(cc1OC)/C(=C/C(=O)c1cccc([N+](=O)[O-])c1)NCC2", "Potency": "active: 13 µM"}
{"compound": "CCCCNc1c(-c2ccc(SC(C)CC)cc2)nc2cnccn12", "note": "(centres undefined)", "Potency": "inconclusive: 29.1 µM [falling, single point]"}
{"compound": "CC(C)CN=c1cc(-c2ccccc2)oc2ccc(Cl)cc12", "Potency": "inactive"}
{"compound": "O=C(COCc1cc(-c2cccs2)on1)NCc1cccc(Cl)c1", "Potency": "inactive"}
{"compound": "COc1ccccc1NC(=O)c1ccc(NC(=O)Cc2n[nH]c(=O)c3ccccc23)cc1", "Potency": "inconclusive: 0.517 µM [falling, partial curve, poor fit]"}
{"compound": "O=C(c1ccc(Cn2c(=O)[nH]c3ccccc3c2=O)cc1)N1CCN(c2ccccc2)CC1", "Potency": "inactive"}
{"compound": "CC(C)C(NC(=O)c1ccc(C(C)(C)C)cc1)C(=O)NCCc1ccccn1", "note": "(centres undefined)", "Potency": "inconclusive: 18.4 µM [falling, partial curve, poor fit]"}
{"compound": "CN1CCc2c(OCC(=O)N3N=C(c4cccs4)CC3c3ccc(F)cc3)cccc2C1=O", "note": "(centres undefined)", "Potency": "inconclusive: 32.6 µM [falling, partial curve, poor fit]"}
{"compound": "O=C(Nc1ccc([N+](=O)[O-])cc1Cl)c1ccccc1O", "Potency": "active: 16.4 µM and active: 23.1 µM"}
{"compound": "O=C(CS(=O)(=O)c1nc(-c2ccc(Cl)cc2)cn1-c1ccccc1)Nc1ccc(F)cc1F", "Potency": "inconclusive: 2.59 µM [activator, partial curve, poor fit]"}
{"compound": "CC(C)(C)OC(=O)N1CC=C2C(C#N)=C(N)C(C#N)(C#N)C(c3cccs3)C2C1", "note": "(centres undefined)", "Potency": "inconclusive: 13 µM [falling, partial curve, poor fit]"}
{"compound": "CC1(C)Oc2ccc(C(=O)NC3CCCC3)cc2N(CC(=O)NC2CCCCC2)C1=O", "Potency": "inconclusive: 2.59 µM [falling, partial curve, poor fit]"}
